Some of the results follow. Further columns of the screen follow, without active or inactive calls. The list favours compounds with an active or inconclusive main result. Potencies come from curve fits of mixed quality, noted in brackets.
Test: qHTS Assay to Find Inhibitors of Chronic Active B-Cell Receptor Signaling
Details: ABC-DLBCL IkBa-CBG/CBR reporter, luminescence ratio (green luciferase fused to IkBa over red control in TMD8 lymphoma cells), 4 h
Summary of the method: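 Doxycycline induced both beetle luciferases in TMD8 lymphoma cells; IKK-driven degradation limits the IkappaBalpha-fused green signal, while red luminescence normalises for cell number and nonspecific effects. Compounds tested up to 46 uM, 4 hrs.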

[1] = measured here: CBR red luminescence, cell number
[2] = measured here: IkBa-CBG green luminescence

Cc1ccc(/C=N/Nc2cc(C)nc(N3CCOCC3)n2)cc1
AC50 [1]: 0.251 µM [rising, full curve, poor fit]

CN(c1ccccc1)c1nc(N)c([N+](=O)[O-])c(Nc2ccccc2)n1
AC50 [1]: 0.794 µM [rising, full curve]

COc1cc(NC(=O)C/C(C)=N/NC(=O)C2CCCCC2)c(OC)cc1Cl
AC50 [1]: 20 µM [falling, single point]

CC(NC(=O)c1ccccc1)C(=O)N/N=C/c1cccc([N+](=O)[O-])c1 (configuration not stated)
AC50 [1]: 35.5 µM [falling, single point]

CCOC(=O)CNC(=O)C1COc2ccccc2O1 (configuration not stated)
AC50 [1]: 3.16 µM [falling, single point]

CC(=O)C1=C(C)NC(=O)NC1c1ccccc1 (configuration not stated)
AC50 [1]: 5.62 µM [rising, single point]

CN(C(=O)c1ccco1)c1nc(-c2ccc(Cl)cc2)cs1
AC50 [1]: 1 µM [rising, full curve, poor fit]

CCc1nnc(NC(=O)c2cccc(OC)c2)s1
AC50 [1]: 29.1 µM [falling, single point]

Oc1csc(Cc2nc(-c3ccc4ccccc4c3)cs2)n1
AC50 [1]: 7.94 µM [rising, partial curve, poor fit]

COC(=O)c1[nH]c2ccc(Br)cc2c1NC(=O)CN1CCN(C2CCCCC2)CC1
AC50 [1]: 17.8 µM [rising, partial curve]

Cc1cc(-c2ccccc2)nc(Oc2ccc(C(C)(C)C)cc2)c1S(C)(=O)=O
AC50 [1]: 14.1 µM [rising, single point]

Cc1ccc(NC(=O)c2cnn(C)c2)cc1[N+](=O)[O-]
AC50 [1]: 29.1 µM [rising, partial curve, poor fit]

CCN(CC)S(=O)(=O)c1ccc(S(=O)(=O)N2CCCC2)cc1
AC50 [1]: 3.55 µM [falling, partial curve, poor fit]

COc1ccc(CCNC(=O)c2cc(COc3c(C)cccc3C)on2)c(OC)c1
AC50 [1]: 14.1 µM [rising, single point]

CCc1cccc(NC(=O)c2cccc(S(=O)(=O)N3CCN(C)CC3)c2)c1
AC50 [1]: 3.98 µM [rising, full curve, poor fit]

CCO[C@H]1OC(C(=O)NCc2ccccc2)=C[C@@H](c2ccc(C(F)(F)F)cc2)[C@@H]1CCCO
AC50 [1]: 35.5 µM [falling, single point]

NC(=O)N/N=C/c1ccc(-c2cccc(C(F)(F)F)c2)o1
AC50 [1]: 14.1 µM [rising, partial curve]

COc1ccc(Br)cc1CNC(=O)CCSCc1ccc(C)cc1
AC50 [1]: 20 µM [falling, single point]

CCn1c(SCC(=O)N/N=C/C=C/c2ccccc2[N+](=O)[O-])nnc1-c1ccc(Cl)cc1
AC50 [1]: 32.6 µM [falling, single point]

CC(O)[C@H]1CNC(=O)C(=O)N1CCCCC1CCCCC1 (some centres not stated)
AC50 [1]: 6.31 µM [falling, single point]

CCC(C)c1ccc(NC(=S)NCc2ccccc2OC)cc1 (configuration not stated)
AC50 [1]: 22.4 µM [falling, single point]

Cc1cc(NC(=S)Nc2ccc(C)c(Cl)c2)n[nH]1
AC50 [1]: 14.1 µM [rising, partial curve] | AC50 [2]: 17.8 µM [falling, partial curve, poor fit]

COc1ccc(-c2cc(=NC(CC(C)C)C(=O)O)c3cc(C)ccc3o2)cc1 (configuration not stated)
AC50 [1]: 0.146 µM [rising, full curve, poor fit]

O=C(CSc1nnc(-c2c[nH]c3ccccc23)o1)N1c2ccccc2CCc2ccccc21
AC50 [1]: 1.58 µM [falling, full curve, poor fit]

Cc1ccccc1OCC(=O)Nc1cccc(N(C)S(C)(=O)=O)c1
AC50 [1]: 18.4 µM [falling, partial curve]

Fc1ccc(-c2ccc(/C=N\n3cnnc3)o2)cc1Cl
AC50 [1]: 3.66 µM [falling, partial curve]

Cc1ccc(Cl)cc1-n1ncc2c(NCCCc3ccccc3)ncnc21
AC50 [1]: 35.5 µM [falling, single point]

CCCOC(=O)c1c(-c2ccc(OC)cc2)oc2ccc(-c3ccc(OC)nc3)cc12
AC50 [1]: 2.51 µM [rising, partial curve, poor fit]

CC(SCc1cc(=O)n2c([nH]c3ccccc32)c1C#N)C(=O)O (configuration not stated)
AC50 [1]: 31.6 µM [falling, single point] | AC50 [2]: 11.2 µM [rising, partial curve, poor fit]

Cc1ccc(/C(=N/Nc2ncnc3ccccc23)C(=O)O)cc1
AC50 [1]: 35.5 µM [falling, single point]

CCCn1c(SCC(=O)Nc2sc(C)c(C)c2C#N)nnc1C(C)C
AC50 [1]: 11.2 µM [falling, partial curve, poor fit]

CCOc1ccc(NC(=O)CCC(=O)O)cc1
AC50 [1]: 14.6 µM [falling, partial curve, poor fit]

Brc1ccccc1/C=N/Nc1ccc2ccccc2n1
AC50 [1]: 0.103 µM [falling, full curve]

Cc1cc(NC(=O)c2ccccc2)ncc1NC(=O)c1ccco1
AC50 [1]: 29.1 µM [falling, single point]

Nc1ccc(C(=O)OCc2nc3ccccc3s2)cc1
AC50 [1]: 3.98 µM [rising, full curve]

CC(=O)NCCc1nc2ccccc2n1CCOc1ccccc1
AC50 [1]: 0.562 µM [rising, partial curve, poor fit]

C[C@@H](C[C@@H](O)[C@H](O)C(C)(C)O)[C@@H]1CC[C@]2(C)C3=CC[C@H]4C(C)(C)C(=O)CC[C@]4(C)[C@H]3CC[C@@]12C
AC50 [1]: 18.4 µM [rising, single point]

Cc1ccc(C2(c3ccc(C)cc3)CC2C(=O)Nc2ccc([N+](=O)[O-])cc2O)cc1 (configuration not stated)
AC50 [1]: 1.58 µM [falling, partial curve, poor fit]

Cc1ccc(Cn2c(C)c3cnn(CC(=O)NCc4ccccn4)c(=O)c3c2C)cc1
AC50 [1]: 8.91 µM [falling, partial curve]

Cc1nc2oc3ccccc3c(=O)c2c(=O)n1Cc1ccccc1
AC50 [1]: 0.184 µM [falling, full curve, poor fit]

O=C(C1CC1)N1CCc2cc(Br)cc(S(=O)(=O)N3CCN(c4ccccn4)CC3)c21
AC50 [1]: 0.731 µM [rising, full curve, poor fit]

CN1CC(=O)N(C)c2nc(Br)n(C)c2C1=O
AC50 [1]: 11.2 µM [falling, partial curve]

CCOC(=O)N1CCN(c2nc(C)c3c(n2)CC(C)CC3=O)CC1 (configuration not stated)
AC50 [1]: 5.62 µM [rising, full curve]

O=C(CSc1nnnn1-c1ccccc1)NC1CCCc2ccccc21 (configuration not stated)
AC50 [1]: 32.6 µM [falling, partial curve, poor fit]

COc1ccccc1NC(=O)C/C(C)=N/NC(=O)C12CC3CC(CC(C3)C1)C2
AC50 [1]: 17.8 µM [falling, partial curve, poor fit]

Cc1cccc(-c2noc(C(C)NC(=O)c3ccco3)n2)c1 (configuration not stated)
AC50 [1]: 31.6 µM [rising, partial curve, poor fit]

O=C(CSc1nnc(Cc2cccs2)n1-c1ccccc1)Nc1ccc2c(c1)OCCO2
AC50 [1]: 29.1 µM [falling, single point]

CC(c1ccccc1)N1C(=O)CC(Sc2ncccc2C(=O)O)C1=O (configuration not stated)
AC50 [1]: 0.82 µM [rising, full curve, poor fit]

COc1ccc(-c2cc(C(=O)NC(C(=O)O)C(C)C)c(C)o2)cc1OC (configuration not stated)
AC50 [1]: 10 µM [falling, partial curve]

COC(=O)c1ccccc1NC(=S)NC(=O)c1ccccc1C
AC50 [1]: 8.91 µM [falling, partial curve, poor fit]

O=C(CSc1nnc(-c2ccc(Br)cc2)n1C1CCCCC1)N1CCCC1
AC50 [1]: 0.82 µM [falling, full curve]

Cc1ccc(NC(=S)NCc2cccs2)cc1
AC50 [1]: 0.116 µM [falling, full curve, poor fit]

CCOc1ccc(N2Nc3n[nH]c(N)c3N2)cc1
AC50 [1]: 2.06 µM [rising, full curve]

O=C(OCc1ccccc1)c1cccc(-c2nnn(Cc3ccccc3)n2)c1
AC50 [1]: 25.9 µM [falling, single point]

CCC(=O)Nc1ccc2oc(-c3cccnc3)nc2c1
AC50 [1]: 22.4 µM [rising, partial curve, poor fit]

COc1ccc(C(=S)NCS(=O)(=O)c2ccc(C)cc2)cc1
AC50 [1]: 29.1 µM [falling, single point] | AC50 [2]: 29.1 µM [falling, single point]

Nc1[nH]nc2ncc3cc4ccccc4nc3c12
AC50 [1]: 17.8 µM [falling, single point]

Cc1nc2sccc2c(=O)n1-c1cccc(Cl)c1
AC50 [1]: 35.5 µM [rising, partial curve, poor fit]

COc1ccc(-c2cc(C(=O)N3CCN(c4ccccc4O)CC3)c3ccccc3n2)cc1
AC50 [1]: 23.1 µM [falling, partial curve, poor fit]

COc1cc(NC(=O)CNc2cccc(S(=O)(=O)N3CCCC3)c2)cc(OC)c1
AC50 [1]: 5.62 µM [falling, partial curve, poor fit]

O=C(NC1CC1)c1ccc(N2CCCCC2)c([N+](=O)[O-])c1
AC50 [1]: 2 µM [rising, partial curve]

CCOc1ccc(S(=O)(=O)Nc2ccc3oc(C)c(C(=O)OC(C)C)c3c2)cc1
AC50 [1]: 12.6 µM [rising, single point]

Cc1nnc(N/N=C/c2ccccc2F)n1N
AC50 [1]: 25.1 µM [falling, single point]

COc1ccc(NC(=O)CSc2ccc(-c3ccco3)nn2)c(OC)c1
AC50 [1]: 7.94 µM [falling, partial curve]
